The results in this text go back to paper PMC5231319.

Results are given in words; binding and its absence hold for the method and conditions named. Binding seen in cells or lysates may run through a third protein. Binding calls can cover weak binding; strength is not graded here.

The target in this experiment is Myc-tagged Calreticulin (chick) (chick). The experiment can be described thus: co-IP; HEK-293T cells co-transfected with CALR-Myc and BMP4; medium immunoprecipitated with anti-Myc (control: mouse IgG), Sepharose beads, eluate blotted with anti-BMP4; Co-IP wash buffer 0.025 M Tris pH 7.4, 0.15 M NaCl, 0.001 M EDTA, 1% NP-40, 5% glycerol, 4 °C.

B1: BMP4 (ligand, UniProt P12644 293-408)
chain: SPKHHSQRARKKNKNCRRHSLYVDFSDVGWNDWIVAPPGYQAFYCHGDCPFPLADHLNSTNHAIVQTLVNSVNSSIPKACCVPTELSAISMLYLDEYDKVVLKNYQEMVVEGCGCR
Turning to B1, the binding entry is recorded as “binds”.
